Source: paper PMC4338625

How the values were obtained:
Assay in all cases: EMSA
ETS1 (human) = test system: T1, ETS1 (human); conditions: EMSA conditions not printed (as previously described, ref 5); protein stock in 10 mM Tris pH 7.9, 0.5 mM EDTA, 200 mM KCl, 1 mM DTT, 10% glycerol; recombinant protein; residues 1-485; protein details: N-term 6xHis
T1 sequence (looked up): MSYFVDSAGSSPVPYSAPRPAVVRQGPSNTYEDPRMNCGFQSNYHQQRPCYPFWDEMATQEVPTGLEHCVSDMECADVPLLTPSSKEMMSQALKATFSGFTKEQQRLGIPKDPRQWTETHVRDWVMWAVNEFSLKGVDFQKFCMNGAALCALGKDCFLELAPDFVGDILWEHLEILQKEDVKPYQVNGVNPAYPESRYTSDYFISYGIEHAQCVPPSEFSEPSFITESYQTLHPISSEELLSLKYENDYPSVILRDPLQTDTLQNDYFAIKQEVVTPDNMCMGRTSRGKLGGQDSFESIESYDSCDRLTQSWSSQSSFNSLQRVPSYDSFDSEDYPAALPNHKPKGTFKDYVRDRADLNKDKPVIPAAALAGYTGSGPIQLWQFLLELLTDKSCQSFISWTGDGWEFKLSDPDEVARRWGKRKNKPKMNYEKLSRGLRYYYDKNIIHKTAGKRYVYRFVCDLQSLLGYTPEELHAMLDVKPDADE

SPDEF (human) = target: T2, SPDEF (human) (UniProt O95238); conditions: EMSA conditions not printed (as previously described, ref 5); protein stock in 10 mM Tris pH 7.9, 0.5 mM EDTA, 200 mM KCl, 1 mM DTT, 10% glycerol; recombinant protein; residues 1-335; protein details: N-term 6xHis
T2 sequence (looked up): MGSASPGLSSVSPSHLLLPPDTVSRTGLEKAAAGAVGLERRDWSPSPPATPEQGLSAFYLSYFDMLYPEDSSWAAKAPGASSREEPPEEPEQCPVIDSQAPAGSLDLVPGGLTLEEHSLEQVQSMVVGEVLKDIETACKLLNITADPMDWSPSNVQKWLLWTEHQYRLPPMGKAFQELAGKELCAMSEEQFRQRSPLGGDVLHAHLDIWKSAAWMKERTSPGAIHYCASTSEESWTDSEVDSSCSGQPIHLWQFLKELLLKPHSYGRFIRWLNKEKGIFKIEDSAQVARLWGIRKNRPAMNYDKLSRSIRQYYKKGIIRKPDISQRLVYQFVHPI

ETV4 (human) = target: T3, ETV4 (human) (UniProt P43268); conditions: EMSA conditions not printed (as previously described, ref 5); protein stock in 10 mM Tris pH 7.9, 0.5 mM EDTA, 200 mM KCl, 1 mM DTT, 10% glycerol; recombinant protein; residues 1-484; protein details: N-term 6xHis
T3 sequence (looked up): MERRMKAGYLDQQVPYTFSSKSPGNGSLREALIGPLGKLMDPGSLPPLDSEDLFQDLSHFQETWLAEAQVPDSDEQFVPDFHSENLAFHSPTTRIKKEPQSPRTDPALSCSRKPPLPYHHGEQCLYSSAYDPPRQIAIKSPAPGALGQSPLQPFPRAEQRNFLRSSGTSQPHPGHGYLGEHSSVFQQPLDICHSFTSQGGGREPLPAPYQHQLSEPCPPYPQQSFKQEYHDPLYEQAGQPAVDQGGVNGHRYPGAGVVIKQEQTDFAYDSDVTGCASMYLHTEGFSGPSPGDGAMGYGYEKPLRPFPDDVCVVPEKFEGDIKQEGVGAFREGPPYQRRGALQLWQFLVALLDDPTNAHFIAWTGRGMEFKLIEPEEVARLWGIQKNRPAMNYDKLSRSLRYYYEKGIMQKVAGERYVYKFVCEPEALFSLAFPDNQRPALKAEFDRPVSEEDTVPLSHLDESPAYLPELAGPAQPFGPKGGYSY

ETV1 (human) = target: T4, ETV1 (human) (UniProt P50549); conditions: EMSA conditions not printed (as previously described, ref 5); protein stock in 10 mM Tris pH 7.9, 0.5 mM EDTA, 200 mM KCl, 1 mM DTT, 10% glycerol; recombinant protein; residues 1-477; protein details: N-term 6xHis
T4 sequence (looked up): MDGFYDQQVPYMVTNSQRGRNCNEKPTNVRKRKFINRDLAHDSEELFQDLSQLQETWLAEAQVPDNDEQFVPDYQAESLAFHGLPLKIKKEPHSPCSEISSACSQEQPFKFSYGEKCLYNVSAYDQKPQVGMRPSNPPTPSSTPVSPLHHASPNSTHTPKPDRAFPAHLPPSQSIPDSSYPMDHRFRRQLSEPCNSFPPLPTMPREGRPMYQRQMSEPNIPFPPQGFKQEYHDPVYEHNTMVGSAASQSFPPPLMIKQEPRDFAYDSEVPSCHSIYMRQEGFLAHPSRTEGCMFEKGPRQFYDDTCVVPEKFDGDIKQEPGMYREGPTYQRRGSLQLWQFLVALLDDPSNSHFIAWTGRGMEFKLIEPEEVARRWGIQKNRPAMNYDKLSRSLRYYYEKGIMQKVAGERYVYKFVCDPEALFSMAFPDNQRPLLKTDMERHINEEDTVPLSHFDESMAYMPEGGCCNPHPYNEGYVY

ELF3 (human) = target: T5, ELF3 (human) (UniProt P78545); conditions: EMSA conditions not printed (as previously described, ref 5); protein stock in 10 mM Tris pH 7.9, 0.5 mM EDTA, 200 mM KCl, 1 mM DTT, 10% glycerol; recombinant protein; residues 1-371; protein details: N-term 6xHis
T5 sequence (looked up): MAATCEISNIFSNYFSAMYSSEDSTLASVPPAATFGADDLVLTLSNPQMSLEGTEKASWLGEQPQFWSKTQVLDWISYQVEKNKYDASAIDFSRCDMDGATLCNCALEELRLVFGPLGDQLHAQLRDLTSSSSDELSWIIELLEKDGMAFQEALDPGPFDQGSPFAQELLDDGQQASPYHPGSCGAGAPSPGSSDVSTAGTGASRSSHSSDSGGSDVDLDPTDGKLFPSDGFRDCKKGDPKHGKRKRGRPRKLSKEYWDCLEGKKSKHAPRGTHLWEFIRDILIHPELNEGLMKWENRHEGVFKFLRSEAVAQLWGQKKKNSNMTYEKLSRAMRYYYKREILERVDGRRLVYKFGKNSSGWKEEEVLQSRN

Measured: binding result

GCCACGGCCCAGGAAGTGACTCACCCACCCTGATG (double strand) [ETS consensus EMSA probe]
binds: ETS1 (human) | SPDEF (human) | ETV4 (human) | ETV1 (human) | ELF3 (human)

Construct, isoform or probe ends are uncertain for at least one entry. At least one verdict was read from the data and is not stated in words by the source. Where a protein sequence is shown, tags need not be part of it.
